# Assay results: patent US20020137019A1
# By UniProt entry, the sequences of proteins in these tests, tags left out. Where a name states a change or a piece, a line headed by the entry shows the natural chain unless it says otherwise. Residues count along the entry.
# UniProt P03372: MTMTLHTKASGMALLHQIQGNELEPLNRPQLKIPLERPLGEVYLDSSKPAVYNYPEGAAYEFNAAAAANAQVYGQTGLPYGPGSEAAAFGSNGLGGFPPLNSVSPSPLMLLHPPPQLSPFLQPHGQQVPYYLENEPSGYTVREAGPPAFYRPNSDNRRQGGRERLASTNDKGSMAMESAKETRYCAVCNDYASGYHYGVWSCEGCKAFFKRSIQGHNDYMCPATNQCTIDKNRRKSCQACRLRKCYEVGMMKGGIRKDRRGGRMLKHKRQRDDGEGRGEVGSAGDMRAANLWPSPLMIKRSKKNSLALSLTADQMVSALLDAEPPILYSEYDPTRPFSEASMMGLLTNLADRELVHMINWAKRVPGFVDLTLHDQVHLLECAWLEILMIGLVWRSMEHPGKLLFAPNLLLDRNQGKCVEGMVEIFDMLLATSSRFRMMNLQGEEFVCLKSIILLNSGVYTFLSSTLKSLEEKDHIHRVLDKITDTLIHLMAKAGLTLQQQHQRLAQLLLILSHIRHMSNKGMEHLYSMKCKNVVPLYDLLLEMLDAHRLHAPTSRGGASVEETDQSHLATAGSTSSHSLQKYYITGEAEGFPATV
# UniProt P06536, residues 107-237: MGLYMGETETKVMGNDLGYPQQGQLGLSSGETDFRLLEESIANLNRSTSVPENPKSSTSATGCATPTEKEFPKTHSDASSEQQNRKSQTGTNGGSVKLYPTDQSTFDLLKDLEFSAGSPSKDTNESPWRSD
# UniProt P0A7C2: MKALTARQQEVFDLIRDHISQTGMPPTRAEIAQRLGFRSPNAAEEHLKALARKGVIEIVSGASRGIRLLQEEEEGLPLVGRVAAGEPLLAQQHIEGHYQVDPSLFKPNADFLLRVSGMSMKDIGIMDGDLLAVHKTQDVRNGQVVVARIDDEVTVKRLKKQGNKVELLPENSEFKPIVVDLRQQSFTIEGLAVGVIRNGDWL
# No constants are given. Whether binding was seen depends on the method and setting. Some results given as binding are weak or reduced against the parent protein; the word gives no strength.
# Assays:
# [1] = target: estrogen receptor alpha (human) (UniProt P03372); assay: yeast two hybrid system
# [2] = target: glucocorticoid receptor AF1 (GR107-237) in pJG4-5 (UniProt P06536); assay: modified yeast two-hybrid, qualitative plate beta-galactosidase assay
substance,measurement,setting,value
"ART-27 (full length, 1-157; LexA DNA binding domain fusion) (from UniProt P0A7C2 1-202; Q9UBK9 1-157)",binding,[1],binds
same,binding,[2],binds
